Results from one PubChem assay

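Genome-wide siRNA knockdown in TC32 Ewing sarcoma cells, comparing luciferase light from an NR0B1-promoter reporter with a CMV-promoter reporter 48 hours after transfection. Each siRNA was applied at 20 nM. A z-score of the log NR0B1-over-CMV signal, less the median of siRNAs with the same seed; more negative means a stronger specific loss of the NR0B1 reporter.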

The strongest results of the screen are mostly left out here. Sequences are the guide (antisense) strand, without overhang.

| # | strand | gene | seed-corrected z-score |
|---|---|---|---|
| 1 | `UCCAAGUUAAACAUAGUUC` | NOTO | 1.608 |
| 2 | `UAGAUUCUCAUCCCACUGC` | RD3 | 0.2143 |
| 3 | `UACAGGUCUUGGUUGAUGC` | CHPF2 | -0.1888 |
| 4 | `UUAUGUUCCAUGAGCUUUG` | ZNF676 | -0.5514 |
| 5 | `AUGUCGAUAAGGAAGGUGG` | FZD8 | -1.246 |
| 6 | `UUUUCAACCAAUGAUGUAG` | SPATA19 | 1.228 |
| 7 | `UGGAUGACAAGGUUGCUGC` | ZNF692 | -0.05772 |
| 8 | `UCACAAUACGUCAUUAUUC` | SNCA | 0.8316 |
| 9 | `UCAUUACUCAUAGUUGGUC` | LOC647070 | 0.1388 |
| 10 | `UCAUGUAUUUGCGGUAGGC` | FAM196A | -0.4535 |
| 11 | `UAGUAGAACUCAACAAAGC` | TREH | 1.15 |
| 12 | `UAUUCGUCAACGUAUCUCC` | CLK4 | -0.8312 |
| 13 | `UGAGGAUUCAGGCUAUGUG` | NKX3-2 | 0.1415 |
| 14 | `UCUACUUUAGUGCUGGCUC` | PNMA6B | -0.844 |
| 15 | `AUAACCUUAGCAUUAGUCC` | ABCA6 | 1.068 |
| 16 | `UUCUUGUCUCUGUUGUUCC` | ADSS | -0.1271 |
| 17 | `UGUCUUCGAACUGAACUGG` | ZNF441 | -0.5147 |
| 18 | `AUAGCGACGAUUCACAGUG` | SNX19 | 0.7836 |
| 19 | `UAAAGUGACCAGGUCGAGG` | TRMU | 0.1967 |
| 20 | `UAGGCUCCGCUGGAUAUCC` | FANCG | 1.06 |
| 21 | `UUUCCAGUAUGUAUCAUUU` | ZNF140 | -0.03653 |
| 22 | `UAGAGUGUGACCCAAAGGC` | DOLK | 0.5559 |
| 23 | `UCUGUCACAAGAGUUAUUC` | GSAP | 0.353 |
| 24 | `UUUCAGGCAGCCUCUGUUC` | C16orf89 | 0.3635 |
| 25 | `UUGGCUUUUACAUCAAGCG` | TNFAIP8L1 | 0.7036 |
| 26 | `AUAGUUAUAAUAAGGAGCC` | CTBS | -0.09149 |
| 27 | `UAACGGGUCAUCAGCAGUG` | ADCY4 | 0.2164 |
| 28 | `AUGCUAUCAACAACCAGCC` | KCNH1 | -0.3466 |
| 29 | `ACUGGUACAACCACGUCUC` | JMJD4 | 1.604 |
| 30 | `UAAGCGAGGAUGCCGAAUC` | ANKHD1-EIF4EBP3 | -0.7256 |
| 31 | `AUUUCGGCAAUAGUCAGGG` | GPC1 | 1.379 |
| 32 | `AAAUCGGAAUCUGAUCUGC` | SUMO4 | -1.507 |
| 33 | `UUUGUAACAUGCAAACUGC` | OXNAD1 | 0.3469 |
| 34 | `UGUUAUACACGGUAAUGCC` | CHST10 | -0.504 |
| 35 | `UUCUCUAGAAAUUCUGCCC` | RNPC3 | 0.5108 |
| 36 | `UGAUGACUGAGCAUCUUGG` | MAP4K1 | -0.1006 |
| 37 | `UCUGUAGAAACUUCACUGC` | PEX14 | -0.9461 |
| 38 | `UAUUGGUUAAUGUUUCUAG` | SZRD1 | -0.5147 |
| 39 | `UCUUCCGUUAUUACCGUCC` | FUBP3 | 0.2789 |
| 40 | `UCUUUGCCGAACUCACUUC` | LEAP2 | -0.6702 |
| 41 | `UUCUGUAUAAGAUUCACCG` | MCM10 | -1.196 |
| 42 | `UACGUUUGAUUUUUCCUGG` | RCL1 | -1.034 |
| 43 | `AAAGGUCCCACACGUGAGG` | LIMK1 | 0.2228 |
| 44 | `UAUAGGCUGGGAUCACUUG` | DEFB118 | -0.3827 |
| 45 | `UAGGGACUCAUAGCGGGUG` | C22orf15 | 0.2575 |
| 46 | `UAAGAUGUAGGGUACGUGU` | EPHB6 | 0.2011 |
| 47 | `UGAGGACCUGAGAUCAUAG` | OLMALINC | 0.1689 |
| 48 | `UAGUUCACUAGUAGUACCG` | APEH | -0.08289 |
| 49 | `UUAGCUUGGUUACUAAUGC` | NUP43 | 0.5975 |
| 50 | `AAAGUUGAAGGCGGCAUUG` | TACR2 | 0.8549 |
| 51 | `UACAUAUCCAACAUAAGAG` | USP14 | -0.4327 |
| 52 | `UAAUGGAUCCAGCUCGUUC` | ARSF | 1.509 |
| 53 | `UUUUGACUAGAGACAAAGG` | CEP70 | 1.159 |
| 54 | `UUGGUCGACUUUGUAGUCC` | NDUFB10 | 0.3146 |
| 55 | `UAUGUUACAGUGAUCUAGC` | GSK3B | 0.9359 |
| 56 | `AAACUCUCCGUGUUGACUC` | ERCC8 | 0.8867 |
| 57 | `AUUCUCACAAUCAAACACC` | UBE2G1 | 0.9531 |

The last 3 entries again:

| strand | gene | seed-corrected z-score |
|---|---|---|
| `UAUGUUACAGUGAUCUAGC` | GSK3B | 0.9359 |
| `AAACUCUCCGUGUUGACUC` | ERCC8 | 0.8867 |
| `AUUCUCACAAUCAAACACC` | UBE2G1 | 0.9531 |

The results are deposited in PubChem (AID1159506; NCATS, 2015).